The results in this text go back to article PMC7736783 (Nucleic Acids Research, 2020).

Amino acid sequences for entries named in this document (tags omitted). A change or cut given only in a name is not applied to a line headed by its entry. Chains listed by the source or under a name are the forms on record and can include a tag or linker. Residues count along the entry.
MTA1-Δ12 (MTA1 162–354 with part of ELM2 helix 2 deleted) (Q13330, form named): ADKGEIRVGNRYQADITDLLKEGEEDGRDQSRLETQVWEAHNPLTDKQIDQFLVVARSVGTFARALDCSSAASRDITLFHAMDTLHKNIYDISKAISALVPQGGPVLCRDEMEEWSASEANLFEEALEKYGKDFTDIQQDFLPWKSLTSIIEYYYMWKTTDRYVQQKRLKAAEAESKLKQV
UniProt Q9UBB5: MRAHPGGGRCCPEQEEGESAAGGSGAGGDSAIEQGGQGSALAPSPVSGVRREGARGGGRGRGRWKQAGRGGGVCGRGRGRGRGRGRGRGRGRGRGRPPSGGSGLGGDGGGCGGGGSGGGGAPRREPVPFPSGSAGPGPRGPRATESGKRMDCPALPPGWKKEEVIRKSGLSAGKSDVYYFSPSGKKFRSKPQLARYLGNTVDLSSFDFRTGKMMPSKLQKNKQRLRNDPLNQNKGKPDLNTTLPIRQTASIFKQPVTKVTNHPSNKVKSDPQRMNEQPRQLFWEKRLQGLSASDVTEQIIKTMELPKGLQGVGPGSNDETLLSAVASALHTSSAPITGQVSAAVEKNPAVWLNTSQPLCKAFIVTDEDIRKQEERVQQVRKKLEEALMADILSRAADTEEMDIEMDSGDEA
Strep-MBD2 (residues 114–411): residues 114-411 of Q9UBB5

These are yes or no findings as the source states them, for the method shown.

For assay [1], the target named is MTA1-Δ12 (MTA1 162–354 with part of ELM2 helix 2 deleted) (UniProt Q13330). The assay can be described thus: condition: only the monomeric form of the MTA1-Δ12:HDAC1 complex (second Superose 6 peak); SEC; FLAG-purified, TEV-eluted co-expressed complex run on a Superose 6 column; fractions on SDS-PAGE; both purified.
Assay [2] concerns the target Strep-MBD2 (residues 114–411) (UniProt Q9UBB5). The assay can be described thus: pull-down; complex co-expressed with Strep-MBD2 and untagged MBD2, purified on FLAG resin, TEV-eluted, gel filtrated (Superose 6), then applied to Strep-Tactin XT Superflow resin, washed five times with buffer C (25 mM Tris-HCl pH 7.5, 75 mM potassium acetate, 0.5 mM TCEP), resin loaded on SDS-PAGE; both purified.

Turning to “MBD2 (residues 145–411) (from UniProt Q9UBB5 145-411) (domain or fragment)”, the binding result in assay [1] and in assay [2] was “no binding” in each case.
